# Experimental data from publication PMC4322968.
# By UniProt entry, the sequences of proteins in these tests, tags left out.
# UniProt P10275: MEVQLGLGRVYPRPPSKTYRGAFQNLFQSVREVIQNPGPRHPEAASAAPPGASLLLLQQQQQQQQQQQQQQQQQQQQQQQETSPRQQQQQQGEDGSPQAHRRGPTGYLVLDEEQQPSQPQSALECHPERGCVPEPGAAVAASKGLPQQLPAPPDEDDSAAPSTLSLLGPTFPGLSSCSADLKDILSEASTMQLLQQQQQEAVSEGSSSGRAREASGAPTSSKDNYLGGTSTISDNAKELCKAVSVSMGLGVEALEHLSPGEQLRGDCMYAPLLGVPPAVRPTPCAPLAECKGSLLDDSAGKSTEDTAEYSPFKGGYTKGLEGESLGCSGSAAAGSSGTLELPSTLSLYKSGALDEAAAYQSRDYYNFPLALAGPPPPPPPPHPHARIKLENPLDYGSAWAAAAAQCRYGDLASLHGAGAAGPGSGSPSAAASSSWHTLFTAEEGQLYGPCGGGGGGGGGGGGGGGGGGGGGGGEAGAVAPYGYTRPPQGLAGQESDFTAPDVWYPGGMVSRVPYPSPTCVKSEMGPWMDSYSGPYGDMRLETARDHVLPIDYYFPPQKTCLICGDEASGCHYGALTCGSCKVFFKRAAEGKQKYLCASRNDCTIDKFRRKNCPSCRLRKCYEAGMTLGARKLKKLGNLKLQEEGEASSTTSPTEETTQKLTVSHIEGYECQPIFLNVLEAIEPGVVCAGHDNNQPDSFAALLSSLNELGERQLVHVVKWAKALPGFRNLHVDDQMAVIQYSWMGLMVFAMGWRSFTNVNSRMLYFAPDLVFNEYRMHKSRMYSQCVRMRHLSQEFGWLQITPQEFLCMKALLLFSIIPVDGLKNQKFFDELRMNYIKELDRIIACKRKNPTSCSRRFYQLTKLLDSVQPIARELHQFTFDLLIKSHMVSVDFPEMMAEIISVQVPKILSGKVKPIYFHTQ
# These are yes or no findings as the source states them, for the method shown. In cells and extracts the contact can be indirect. Some entries that bind do so weakly or less than the wild type. For some of these results: Sequences can lack the tags named with a protein.
# Experiments:
# [1] = target: T1, FK506-binding protein 5 (FKBP5) (human (endogenous in SKOV3/Tx600)) (UniProt Q13451); experiment: co-IP; 500 ug of SKOV3/Tx600 (txr) cell extracts immunoprecipitated with antibody against FKBP5 or IgG as control; cells without DHT (inactivated AR)
# T1 sequence: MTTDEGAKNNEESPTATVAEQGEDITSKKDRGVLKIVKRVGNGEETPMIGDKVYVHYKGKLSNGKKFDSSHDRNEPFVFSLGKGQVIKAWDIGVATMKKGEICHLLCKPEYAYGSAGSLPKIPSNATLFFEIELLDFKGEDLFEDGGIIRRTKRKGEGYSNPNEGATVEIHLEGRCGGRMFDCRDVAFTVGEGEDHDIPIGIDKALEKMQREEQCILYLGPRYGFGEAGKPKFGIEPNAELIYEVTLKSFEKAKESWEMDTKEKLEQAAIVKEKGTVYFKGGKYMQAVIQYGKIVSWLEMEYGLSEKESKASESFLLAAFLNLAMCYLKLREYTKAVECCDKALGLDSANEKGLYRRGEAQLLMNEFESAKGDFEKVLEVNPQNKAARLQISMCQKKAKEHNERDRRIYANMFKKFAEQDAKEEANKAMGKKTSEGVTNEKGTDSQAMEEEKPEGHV
# [2] = target: T1, FK506-binding protein 5 (FKBP5) (human (endogenous in SKOV3/Tx600)); experiment: condition: only after stimulation of the cells with DHT; co-IP; 500 ug of SKOV3/Tx600 (txr) cell extracts immunoprecipitated with antibody against FKBP5 or IgG as control; cells treated with DHT for the indicated time period (activated AR)
# [3] = target: T2, Flag-FKBP5 (UniProt Q13451); experiment: co-IP; HEK293T cells transfected with AR and FKBP5 plasmids; performed as in Fig. 4C (immunoprecipitation with antibody against FKBP5 or IgG); cells without DHT
# T2 sequence: T1 sequence
# [4] = target: T2, Flag-FKBP5; experiment: condition: only after stimulation of the cells with DHT; co-IP; HEK293T cells transfected with AR and FKBP5 plasmids; performed as in Fig. 4C (immunoprecipitation with antibody against FKBP5 or IgG); cells treated with DHT (activated AR)
Substance,binding [1],binding [2],binding [3],binding [4]
androgen receptor (AR) (from UniProt P10275 1-920),binds,no binding,,
androgen receptor (AR) expressed from pSG5-AR (from UniProt P10275 1-920),,,binds,no binding
